The supplement of paper PMC11006884
Only a part is listed here, and it is no random draw.

By UniProt entry, the sequences of proteins in these tests, tags left out. Where a name states a change or a piece, a line headed by the entry shows the natural chain unless it says otherwise.
UniProt Q01082, whole entry, looked up: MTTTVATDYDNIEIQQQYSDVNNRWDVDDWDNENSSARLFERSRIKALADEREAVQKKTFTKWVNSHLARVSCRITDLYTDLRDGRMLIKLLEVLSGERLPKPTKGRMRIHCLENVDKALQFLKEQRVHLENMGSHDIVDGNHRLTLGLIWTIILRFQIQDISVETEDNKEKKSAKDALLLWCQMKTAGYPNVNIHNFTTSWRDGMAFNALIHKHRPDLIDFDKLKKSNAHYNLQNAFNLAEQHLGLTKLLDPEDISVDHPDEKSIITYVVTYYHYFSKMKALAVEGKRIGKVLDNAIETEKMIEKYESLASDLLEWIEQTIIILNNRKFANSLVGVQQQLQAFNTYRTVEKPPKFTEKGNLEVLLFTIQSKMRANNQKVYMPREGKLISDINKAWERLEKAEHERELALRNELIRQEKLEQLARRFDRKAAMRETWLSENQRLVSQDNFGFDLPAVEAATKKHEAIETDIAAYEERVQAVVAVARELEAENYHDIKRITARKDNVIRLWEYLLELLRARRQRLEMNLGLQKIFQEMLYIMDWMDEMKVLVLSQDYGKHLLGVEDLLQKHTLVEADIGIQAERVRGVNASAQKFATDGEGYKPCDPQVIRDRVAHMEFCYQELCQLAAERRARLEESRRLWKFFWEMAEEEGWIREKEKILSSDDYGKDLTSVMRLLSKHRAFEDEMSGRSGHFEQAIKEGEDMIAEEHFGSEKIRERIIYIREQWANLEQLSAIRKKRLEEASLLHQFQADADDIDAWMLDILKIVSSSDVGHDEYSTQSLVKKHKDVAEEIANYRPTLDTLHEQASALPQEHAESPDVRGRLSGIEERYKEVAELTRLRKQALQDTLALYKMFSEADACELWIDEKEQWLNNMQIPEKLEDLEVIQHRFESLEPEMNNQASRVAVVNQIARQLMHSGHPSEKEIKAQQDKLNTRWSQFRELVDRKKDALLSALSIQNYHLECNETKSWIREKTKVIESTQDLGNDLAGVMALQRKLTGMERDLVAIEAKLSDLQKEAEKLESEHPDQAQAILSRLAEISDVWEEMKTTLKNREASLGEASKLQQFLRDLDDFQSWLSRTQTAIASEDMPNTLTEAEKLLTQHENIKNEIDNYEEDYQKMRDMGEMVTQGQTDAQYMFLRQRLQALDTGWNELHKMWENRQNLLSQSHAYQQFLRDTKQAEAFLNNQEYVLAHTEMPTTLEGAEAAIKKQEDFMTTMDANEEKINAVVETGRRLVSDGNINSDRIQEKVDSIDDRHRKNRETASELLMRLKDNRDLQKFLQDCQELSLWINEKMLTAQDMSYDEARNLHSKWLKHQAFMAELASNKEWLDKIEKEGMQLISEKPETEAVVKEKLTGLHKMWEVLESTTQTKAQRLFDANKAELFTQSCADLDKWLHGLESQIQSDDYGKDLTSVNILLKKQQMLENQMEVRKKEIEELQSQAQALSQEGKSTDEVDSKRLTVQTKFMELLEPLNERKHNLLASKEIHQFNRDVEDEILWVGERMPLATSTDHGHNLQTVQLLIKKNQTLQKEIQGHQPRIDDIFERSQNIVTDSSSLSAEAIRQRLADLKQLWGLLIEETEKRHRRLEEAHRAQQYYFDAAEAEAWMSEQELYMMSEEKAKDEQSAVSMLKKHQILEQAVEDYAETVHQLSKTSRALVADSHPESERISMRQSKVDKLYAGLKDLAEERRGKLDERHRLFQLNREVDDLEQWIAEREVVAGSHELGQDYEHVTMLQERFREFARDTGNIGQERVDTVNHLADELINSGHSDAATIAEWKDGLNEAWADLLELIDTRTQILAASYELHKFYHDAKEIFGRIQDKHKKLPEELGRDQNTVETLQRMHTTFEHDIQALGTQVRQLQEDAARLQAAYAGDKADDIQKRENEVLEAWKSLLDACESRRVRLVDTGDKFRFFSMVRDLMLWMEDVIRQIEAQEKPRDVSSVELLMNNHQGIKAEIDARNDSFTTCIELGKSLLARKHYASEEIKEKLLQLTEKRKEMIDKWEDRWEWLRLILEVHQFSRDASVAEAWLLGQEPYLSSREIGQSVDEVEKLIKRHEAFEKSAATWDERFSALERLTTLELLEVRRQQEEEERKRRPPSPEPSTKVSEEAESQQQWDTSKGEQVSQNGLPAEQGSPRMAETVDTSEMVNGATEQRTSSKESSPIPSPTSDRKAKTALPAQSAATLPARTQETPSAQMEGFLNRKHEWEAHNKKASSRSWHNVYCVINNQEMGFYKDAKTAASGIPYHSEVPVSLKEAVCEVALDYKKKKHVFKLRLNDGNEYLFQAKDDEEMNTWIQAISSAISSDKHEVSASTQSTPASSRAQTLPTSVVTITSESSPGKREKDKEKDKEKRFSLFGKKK
UniProt Q00653: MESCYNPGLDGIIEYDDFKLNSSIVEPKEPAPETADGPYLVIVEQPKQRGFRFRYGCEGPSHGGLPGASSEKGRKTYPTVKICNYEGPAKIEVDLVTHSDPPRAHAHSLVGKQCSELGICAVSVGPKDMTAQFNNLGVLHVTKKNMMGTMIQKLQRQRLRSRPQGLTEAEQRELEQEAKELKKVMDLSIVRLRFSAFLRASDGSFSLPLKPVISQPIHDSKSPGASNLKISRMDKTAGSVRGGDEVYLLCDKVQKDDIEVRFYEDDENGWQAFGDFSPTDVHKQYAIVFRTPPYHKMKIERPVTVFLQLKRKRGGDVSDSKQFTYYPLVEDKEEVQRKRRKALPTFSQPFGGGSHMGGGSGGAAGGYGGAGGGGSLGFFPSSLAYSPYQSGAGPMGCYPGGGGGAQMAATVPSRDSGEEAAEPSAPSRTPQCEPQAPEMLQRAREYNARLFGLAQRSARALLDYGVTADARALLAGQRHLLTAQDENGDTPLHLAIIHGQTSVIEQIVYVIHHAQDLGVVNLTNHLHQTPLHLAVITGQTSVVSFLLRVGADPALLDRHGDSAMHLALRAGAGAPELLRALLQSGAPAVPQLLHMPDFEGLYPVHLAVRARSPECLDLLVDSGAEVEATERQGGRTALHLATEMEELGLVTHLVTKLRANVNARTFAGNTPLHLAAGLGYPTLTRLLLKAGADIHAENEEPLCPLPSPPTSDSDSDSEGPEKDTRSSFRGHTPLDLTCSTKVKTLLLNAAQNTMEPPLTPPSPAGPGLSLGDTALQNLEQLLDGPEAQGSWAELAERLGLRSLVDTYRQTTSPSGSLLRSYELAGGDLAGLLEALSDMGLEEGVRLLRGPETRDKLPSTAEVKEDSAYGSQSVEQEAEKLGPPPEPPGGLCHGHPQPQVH
UniProt Q00839, whole entry, looked up: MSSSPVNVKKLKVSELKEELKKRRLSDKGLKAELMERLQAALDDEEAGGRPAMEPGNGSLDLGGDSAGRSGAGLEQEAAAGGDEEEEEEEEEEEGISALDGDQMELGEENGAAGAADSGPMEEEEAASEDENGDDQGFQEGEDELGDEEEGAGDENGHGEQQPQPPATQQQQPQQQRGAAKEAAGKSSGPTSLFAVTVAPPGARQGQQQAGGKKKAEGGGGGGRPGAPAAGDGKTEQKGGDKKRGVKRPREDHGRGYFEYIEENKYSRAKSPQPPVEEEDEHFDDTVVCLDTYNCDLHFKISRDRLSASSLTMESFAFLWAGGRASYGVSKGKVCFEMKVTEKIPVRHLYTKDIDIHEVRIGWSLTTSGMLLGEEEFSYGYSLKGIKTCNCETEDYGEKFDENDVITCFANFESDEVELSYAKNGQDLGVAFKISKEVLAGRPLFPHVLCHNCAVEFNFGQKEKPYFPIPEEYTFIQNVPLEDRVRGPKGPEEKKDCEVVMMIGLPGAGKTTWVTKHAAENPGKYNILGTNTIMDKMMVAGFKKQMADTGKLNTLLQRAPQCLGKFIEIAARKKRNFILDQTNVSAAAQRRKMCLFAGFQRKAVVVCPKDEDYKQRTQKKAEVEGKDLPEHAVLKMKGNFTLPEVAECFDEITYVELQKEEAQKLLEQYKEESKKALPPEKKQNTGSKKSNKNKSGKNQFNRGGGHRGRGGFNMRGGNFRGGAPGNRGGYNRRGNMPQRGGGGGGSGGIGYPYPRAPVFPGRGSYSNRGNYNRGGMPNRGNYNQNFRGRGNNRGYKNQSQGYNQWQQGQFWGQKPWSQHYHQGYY
UniProt P68104, whole entry, looked up: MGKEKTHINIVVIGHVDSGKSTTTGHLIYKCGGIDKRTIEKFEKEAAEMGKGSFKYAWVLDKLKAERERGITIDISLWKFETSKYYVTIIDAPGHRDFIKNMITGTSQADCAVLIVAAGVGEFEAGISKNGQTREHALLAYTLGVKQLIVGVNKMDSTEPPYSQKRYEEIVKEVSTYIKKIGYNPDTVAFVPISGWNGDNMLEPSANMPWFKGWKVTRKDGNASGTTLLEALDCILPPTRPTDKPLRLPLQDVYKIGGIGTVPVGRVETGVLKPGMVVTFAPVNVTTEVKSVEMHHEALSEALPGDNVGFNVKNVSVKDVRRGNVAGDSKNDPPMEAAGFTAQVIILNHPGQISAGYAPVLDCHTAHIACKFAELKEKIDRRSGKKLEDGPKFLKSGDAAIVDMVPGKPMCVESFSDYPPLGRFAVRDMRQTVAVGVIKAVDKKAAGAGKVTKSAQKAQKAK
UniProt P63167, whole entry, looked up: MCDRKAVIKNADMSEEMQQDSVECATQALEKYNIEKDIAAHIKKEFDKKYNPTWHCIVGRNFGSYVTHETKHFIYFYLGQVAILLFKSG
UniProt Q00796: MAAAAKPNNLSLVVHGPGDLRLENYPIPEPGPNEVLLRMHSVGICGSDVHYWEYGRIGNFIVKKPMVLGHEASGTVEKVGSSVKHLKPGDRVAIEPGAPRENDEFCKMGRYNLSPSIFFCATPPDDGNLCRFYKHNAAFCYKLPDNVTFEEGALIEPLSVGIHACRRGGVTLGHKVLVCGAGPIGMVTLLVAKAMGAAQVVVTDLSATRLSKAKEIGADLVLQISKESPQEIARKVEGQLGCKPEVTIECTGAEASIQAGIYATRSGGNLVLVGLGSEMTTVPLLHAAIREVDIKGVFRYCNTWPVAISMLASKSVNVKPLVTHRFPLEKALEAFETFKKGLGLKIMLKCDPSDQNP
UniProt P83369: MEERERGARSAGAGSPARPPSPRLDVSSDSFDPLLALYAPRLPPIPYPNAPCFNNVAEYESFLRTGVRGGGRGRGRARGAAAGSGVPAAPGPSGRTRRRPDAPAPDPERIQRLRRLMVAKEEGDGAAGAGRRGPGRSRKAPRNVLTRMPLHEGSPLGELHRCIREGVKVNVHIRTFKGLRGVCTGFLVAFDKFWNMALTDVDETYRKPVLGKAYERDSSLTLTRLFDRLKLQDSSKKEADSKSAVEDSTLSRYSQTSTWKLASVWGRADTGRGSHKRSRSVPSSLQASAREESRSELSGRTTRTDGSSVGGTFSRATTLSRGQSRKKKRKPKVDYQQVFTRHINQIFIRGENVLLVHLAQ
UniProt Q01581: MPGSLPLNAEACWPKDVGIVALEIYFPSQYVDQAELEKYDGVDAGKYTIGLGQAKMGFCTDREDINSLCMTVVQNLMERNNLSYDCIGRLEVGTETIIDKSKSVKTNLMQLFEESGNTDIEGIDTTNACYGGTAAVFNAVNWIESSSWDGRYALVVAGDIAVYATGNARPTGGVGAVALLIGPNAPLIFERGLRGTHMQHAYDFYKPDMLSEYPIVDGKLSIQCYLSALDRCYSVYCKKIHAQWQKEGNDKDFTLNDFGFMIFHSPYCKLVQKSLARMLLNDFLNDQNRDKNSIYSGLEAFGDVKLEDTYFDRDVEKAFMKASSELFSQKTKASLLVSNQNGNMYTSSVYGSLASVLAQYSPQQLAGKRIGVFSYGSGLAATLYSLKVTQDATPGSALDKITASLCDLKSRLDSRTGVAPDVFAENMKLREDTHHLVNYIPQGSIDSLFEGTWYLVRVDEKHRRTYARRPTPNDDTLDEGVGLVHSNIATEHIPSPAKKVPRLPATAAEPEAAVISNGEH

compound: COC(=O)C#Cc1ccccc1 [methyl 3-phenylpropiolate]; test: log2 ratio of iodoacetamide-alkyne labeling of the cysteine site, DMSO over compound (competition); higher = stronger covalent engagement of the cysteine by the compound, active = 1 or more; details: 500 µM; treatment time 1 h; system: HEK293T cell lysate
Summary of the method: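 Electrophile (500 µM) or vehicle was added to HEK293T lysate (2 mg/mL) for 1 h at ambient temperature before iodoacetamide alkyne labelling (1 h) and click coupling to sCIP-TMT reagents. After pooling, overnight trypsin digestion at 37 °C, streptavidin enrichment and acid elution, peptides were measured by Orbitrap Eclipse LC-MS/MS with FAIMS and quantified in FragPipe. Each cysteine's log2 competition ratio compares mean control-channel with mean compound-channel reporter intensity, control over compound. Data came from duplicate channels across three replicates, excluding cysteines quantified in only one replicate.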

Row | Target | log2 ratio of iodoacetamide-alkyne labeling
1 | SPTBN1 C1389 (UniProt Q01082) | inactive: -0.109
2 | SPTBN1 C624 (UniProt Q01082) | inactive: -0.122
3 | NFKB2 C57 (UniProt Q00653) | active: 1.24
4 | UniProt P62987_C91 | inactive: 0.871
5 | UniProt P78527_C1432 | inactive: 0.288
6 | HNRNPU C562 (UniProt Q00839) | inactive: 0.691
7 | EEF1A1 C31 (UniProt P68104) | inactive: 0.126
8 | UniProt P63167_C56 | inactive: 0.0644
9 | UniProt P62826_C112 | inactive: -0.0254
10 | SORD C106 (UniProt Q00796) | inactive: 0.238
11 | CLTC C328 (UniProt Q00610) | inactive: -0.0284
12 | LSM11 C52 (UniProt P83369) | inactive: 0.808
13 | UniProt P62829_C125 | inactive: 0.485
14 | HMGCS1 C86 (UniProt Q01581) | inactive: 0.0742

Entries 5–6, reprinted for reference:
Row | Target | log2 ratio of iodoacetamide-alkyne labeling
5 | UniProt P78527_C1432 | inactive: 0.288
6 | HNRNPU C562 (UniProt Q00839) | inactive: 0.691
